Results are given in words; binding and its absence hold for the method and conditions named. Binding seen in cells or lysates may run through a third protein. Some binding calls cover weakened binding; strength is not graded here.
Assays:
[1] = biological target: T1, Mitogen-activated protein kinase phosphatase-4 (MKP-4) (human (endogenous in HCC tissue and HepG2)) (UniProt Q99956); test: co-IP; HepG2 lysates immunoprecipitated with anti-MKP-4, anti-ERK1/2 antibodies or control IgG (reciprocal); western blot with anti-ERK1/2 and anti-MKP-4
T1 sequence: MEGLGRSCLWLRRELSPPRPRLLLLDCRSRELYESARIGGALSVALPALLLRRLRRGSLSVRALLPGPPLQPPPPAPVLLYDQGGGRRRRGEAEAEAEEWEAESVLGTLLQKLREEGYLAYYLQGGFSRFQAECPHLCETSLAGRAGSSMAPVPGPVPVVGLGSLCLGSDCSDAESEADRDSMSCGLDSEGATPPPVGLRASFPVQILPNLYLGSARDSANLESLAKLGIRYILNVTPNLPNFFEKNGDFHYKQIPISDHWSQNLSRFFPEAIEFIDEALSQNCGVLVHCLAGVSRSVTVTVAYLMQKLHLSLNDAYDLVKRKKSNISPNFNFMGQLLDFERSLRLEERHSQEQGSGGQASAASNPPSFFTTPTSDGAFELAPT

Chains of the proteins cited; added tags and fusions are not shown.
UniProt P27361: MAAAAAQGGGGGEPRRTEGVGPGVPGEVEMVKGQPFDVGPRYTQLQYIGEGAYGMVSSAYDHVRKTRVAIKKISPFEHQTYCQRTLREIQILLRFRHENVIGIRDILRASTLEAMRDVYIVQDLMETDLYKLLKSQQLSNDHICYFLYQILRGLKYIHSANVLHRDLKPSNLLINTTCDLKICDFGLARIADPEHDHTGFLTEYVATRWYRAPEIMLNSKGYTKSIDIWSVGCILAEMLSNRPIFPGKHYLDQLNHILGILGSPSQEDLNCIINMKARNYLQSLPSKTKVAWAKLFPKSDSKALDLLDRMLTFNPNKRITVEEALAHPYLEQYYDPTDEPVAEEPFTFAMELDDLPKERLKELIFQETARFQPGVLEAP
UniProt P28482: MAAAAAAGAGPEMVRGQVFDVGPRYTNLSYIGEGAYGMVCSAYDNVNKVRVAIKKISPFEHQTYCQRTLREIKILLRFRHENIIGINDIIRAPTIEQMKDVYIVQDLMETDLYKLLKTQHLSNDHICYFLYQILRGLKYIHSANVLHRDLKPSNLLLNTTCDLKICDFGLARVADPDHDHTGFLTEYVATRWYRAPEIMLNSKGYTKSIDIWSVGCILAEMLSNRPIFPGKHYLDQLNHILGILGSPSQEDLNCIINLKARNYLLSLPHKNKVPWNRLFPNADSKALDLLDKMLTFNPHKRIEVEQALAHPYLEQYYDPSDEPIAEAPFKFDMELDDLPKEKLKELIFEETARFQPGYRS

[2] = biological target: T1, Mitogen-activated protein kinase phosphatase-4 (MKP-4) (human (endogenous in HCC tissue and HepG2)); test: co-IP; supernatants of HCC tissue lysates precipitated with primary antibody or control IgG and protein G Sepharose; western blot

Extracellular signal-regulated kinase 1 (ERK1) (from UniProt P27361 1-379) (enzyme)
binding [1]: binds
binding [2]: binds

Extracellular signal-regulated kinase 2 (ERK2) (from UniProt P28482 1-360) (enzyme)
binding [1]: binds
binding [2]: binds
